Test results reported in PMC9792514, “C-type lectin-like receptor (CLEC)-2, the ligand of podoplanin, induces morphological changes in podocytes” (Scientific Reports, 2022).
Results are given in words; binding and its absence hold for the method and conditions named. For part of these data: Binding seen in cells or lysates may run through a third protein. Some binding calls cover weakened binding; strength is not graded here. For part of these data: Sequences can lack the tags named with a protein. Each block holds one binder with its values, some of them ahead of it.

The chains behind the UniProt entries cited, without tags or fusion partners. Residues count along the entry.
UniProt Q9P126, residues 51-229: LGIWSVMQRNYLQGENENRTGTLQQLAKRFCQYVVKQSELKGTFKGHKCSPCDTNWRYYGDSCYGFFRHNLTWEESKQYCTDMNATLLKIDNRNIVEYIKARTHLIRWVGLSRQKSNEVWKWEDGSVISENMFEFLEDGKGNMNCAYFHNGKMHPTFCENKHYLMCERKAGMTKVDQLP

Key:
[1] = target: T1, StepTagII-3FLAG-CLEC-2, a fusion of StrepTactin FLAG double tags and the C-terminal extracellular domain of mouse CLEC-2 (51-229) (mouse) (UniProt Q9JL99); assay: native gel or EMSA; Blue Native PAGE of the purified recombinant proteins in aqueous solution; both purified
T1 sequence: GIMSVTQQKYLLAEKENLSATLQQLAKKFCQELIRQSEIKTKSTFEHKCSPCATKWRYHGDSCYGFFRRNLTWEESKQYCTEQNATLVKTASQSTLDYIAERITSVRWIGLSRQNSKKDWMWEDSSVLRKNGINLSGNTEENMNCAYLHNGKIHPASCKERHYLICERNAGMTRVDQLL

[2] = target: Fc-CLEC-2, a fusion of the Fc tag and C-terminal extracellular domain of human CLEC-2 (51-229) (human) (UniProt Q9P126); assay: pull-down; Podocyte lysate (1.5 g/L, 50 uL, 1% Triton X-100) mixed with 3 ug of Fc-CLEC-2 or FLAG-CLEC-2 for 1 h at 4 C, captured on KANEKA KanCapA or Strep-Tactin Superflow plus beads, washed three times, blot with anti-PDPN antibody; only the target purified
[3] = target: T1, StepTagII-3FLAG-CLEC-2, a fusion of StrepTactin FLAG double tags and the C-terminal extracellular domain of mouse CLEC-2 (51-229) (mouse); assay: as above

- binding [1]: no binding
B1: StepTagII-3FLAG-CLEC-2, a fusion of StrepTactin FLAG double tags and the C-terminal extracellular domain of mouse CLEC-2 (51-229) (domain or fragment, UniProt Q9JL99 51-229, looked up)
chain: T1 sequence

- binding [2]: binds
- binding [3]: binds
B2: mouse podoplanin (PDPN) (protein, UniProt Q62011 23-172)
chain: GTIGVNEDDIVTPGTGDGMVPPGIEDKITTTGATGGLNESTGKAPLVPTQRERGTKPPLEELSTSATSDHDHREHESTTTVKVVTSHSVDKKTSHPNRDNAGDETQTTDKKDGLPVVTLVGIIVGVLLAIGFVGGIFIVVMKKISGRFSP
